Test results from paper PMC7377239, “Cardiovascular Effects of Polychlorinated Biphenyls and Their Major Metabolites” (Environmental Health Perspectives, 2020).

Tested on: iPSC-CMs, iPSC-ECs and HUVECs phenotypes
Experiment: ToxPi 2.0 integration of POD values and physicochemical descriptors
Design: species or system human
Conditions: for ToxPi_Score_Bioactivity: Biological Activity ToxPi, POD values of iPSC-CM, iPSC-EC and HUVEC phenotypes integrated; for ToxPi_Score_ChemBiol: Chemical-Biological Integration ToxPi, in vitro data plus physicochemical descriptors
Procedure, shortened: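 Phenotypic readouts in iPSC-cardiomyocytes, iPSC-endothelial cells and HUVECs were normalised to 0.5% DMSO vehicle and fitted to a four-parameter logistic model. POD set at one SD cutoff of vehicle means, with 100 μM assigned when no response. PODs and physicochemical descriptors combined in ToxPi 2.0 scores.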

[1] = HUVECs tube formation, 18 hr, scaled score from POD
[2] = HUVECs, 24 hr, scaled score from POD
[3] = iPSC-EC, 18 h, scaled POD score
[4] = iPSC-EC, 24 h, scaled POD score

## Clc1cc(Cl)c(-c2cc(Cl)c(Cl)cc2Cl)cc1Cl [PCB153]
90min
  cm.amp.avg.90min ToxPi: 0.64
  cm.amp.cv.90min ToxPi: 0.22
  cm.bpm.90min ToxPi: 0.76
  cm.cam.90min ToxPi: 0.65
  cm.decay.rise.90min ToxPi: 0.55
  cm.mii.90min ToxPi: 0.00
  cm.mito.90min ToxPi: 0.66
  cm.spacing.cv.90min ToxPi: 0.0756
  cm.tc.90min ToxPi: 0.60
24hrs
  cm.amp.avg.24hrs ToxPi: 0.00
  cm.amp.cv.24hrs ToxPi: 0.18
  cm.bpm.24hrs ToxPi: 0.46
  cm.cam.24hrs ToxPi: 0.29
  cm.decay.rise.24hrs ToxPi: 0.53
  cm.mii.24hrs ToxPi: 0.24
  cm.mito.24hrs ToxPi: 0.49
  cm.spacing.cv.24hrs ToxPi: 0.20
  cm.tc.24hrs ToxPi: 0.51
[1]
  huvec.mtl.18hr ToxPi: 0.36
  huvec.tlps.18hr ToxPi: 0.09
  huvec.tta.18hr ToxPi: 0.48
  huvec.ttl.18hr ToxPi: 1.00
[2]
  huvec.cyto.24hr ToxPi: 0.90
  huvec.mito.24hr ToxPi: 0.58
  huvec.mitoint.24hr ToxPi: 0.95
  huvec.nma.24hr ToxPi: 0.59
HUVECs, 24 hrs, scaled score from POD
  huvec.tc.24hrs ToxPi: 0.90
[3]
  endo.mtl.18hr ToxPi: 1.00
  endo.tlps.18hr ToxPi: 0.63
  endo.tta.18hr ToxPi: 0.30
  endo.ttl.18hr ToxPi: 0.47
[4]
  endo.cyto.24hr ToxPi: 0.29
  endo.mito.24hr ToxPi: 0.29
  endo.mitoint.24hr ToxPi: 1.00
  endo.nma.24hr ToxPi: 0.08
  endo.tc.24hrs ToxPi: 0.12

## Clc1ccc(-c2ccccc2)cc1 [PCB 3, 4-chlorobiphenyl]
  ToxPi_Score_Bioactivity: 0.3643
  ToxPi_Score_ChemBiol: 0.2773

## Clc1cccc(-c2cccc(Cl)c2)c1 [PCB 11, 3,3′-Dichlorobiphenyl]
  ToxPi_Score_Bioactivity: 0.3134
  ToxPi_Score_ChemBiol: 0.3058

## Clc1ccc(Cl)c(-c2cc(Cl)ccc2Cl)c1 [PCB 52, 2,2′,5,5′-tetrachlorobiphenyl]
  ToxPi_Score_Bioactivity: 0.3123
  ToxPi_Score_ChemBiol: 0.4297

## Clc1ccc(Cl)c(-c2c(Cl)ccc(Cl)c2Cl)c1 [PCB 95, 2,2′,3,5′,6-pentachlorobiphenyl]
  ToxPi_Score_Bioactivity: 0.3739
  ToxPi_Score_ChemBiol: 0.5465

## Clc1ccc(-c2cc(Cl)c(Cl)c(Cl)c2)cc1Cl [PCB 126, 3,3′,4,4′,5-pentachlorobiphenyl]
  ToxPi_Score_Bioactivity: 0.3891
  ToxPi_Score_ChemBiol: 0.5293

## Clc1cc(Cl)c(-c2cc(Cl)c(Cl)cc2Cl)cc1Cl [PCB 153, 2,2′,4,4′,5,5′-hexachlorobiphenyl]
  ToxPi_Score_Bioactivity: 0.6135
  ToxPi_Score_ChemBiol: 0.7686
